Source: patent US8603949B2, “Libraries of optimized cytochrome P450 enzymes and the optimized P450 enzymes” (California Institute of Technology, priority 2003, dated 2013)

Assay: Folding by reduced CO difference spectroscopy (Soret band)
Type: physicochemical
Details: for Folded: reduced CO difference spectroscopy; for λ max for Soret band: reduced CO difference spectrum

Row | Molecule | Folded | λ max for Soret band [nm]
1 | Chimera 70-299: CYP102A1 heme domain with residues 70-299 from CYP102A2 (protein, Chimeric Cytochrome P450 heme group sequence from Bacillus megaterium and Bacillus subtilis, CYP102A1 heme domain with residues 70-299 from CYP102A2) TIKEMPQPKTFGELKNLPLLNTDKPVQALMKIADELGEIFKFEAPGRVTRYLSSQRLIKEACDESRFDKSIEGALEKVRAFSGDGLATSWTHEPNWRKAHNILMPTFSQRAMKDYHEKMVDIAVQLIQKWARLNPNEAVDVPGDMTRLTLDTIGLCGFNYRFNSYYRETPHPFINSMVRALDEAMHQMQRLDVQDKLMVRTKRQFRYDIQTMFSLVDSIIAERRANGDQDEKDLLARMLNVEDPETGEKLDDENIRFQIITFLIAGHETTSGLLSFATYFLLKHPDKLKKAYEEVDRVLTDPVPSYKQVKQLKYVGMVLNEALRLWPTAPAFSLYAKEDTVLGGEYPLEKGDELMVLIPQLHRDKTIWGDDVEEFRPERFENPSAIPQHAFKPFGNGQRACIGQQFALHEATLVLGMMLKHFDFEDHTNYELDIKETLTLKPEGFVVKAKSKKIPLGGIPSPST | yes | 448
2 | Chimera 46-73: CYP102A1 heme domain with residues 46-73 from CYP102A2 (protein, Chimeric Cytochrome P450 heme group sequence from Bacillus megaterium and Bacillus subtilis, CYP102A1 heme domain with residues 46-73 from CYP102A2) TIKEMPQPKTFGELKNLPLLNTDKPVQALMKIADELGEIFKFEAPAGTTIVVSGHELVKEVCDEERFDKSIEGALKFVRDFAGDGLATSWTHEKNWKKAHNILLPSFSQQAMKGYHAMMVDIAVQLVQKWERLNADEHIEVPEDMTRLTLDTIGLCGFNYRFNSFYRDQPHPFITSMVRALDEAMNKLQRANPDDPAYDENKRQFQEDIKVMNDLVDKIIADRKASGEQSDDLLTHMLNGKDPETGEPLDDENIRYQIITFLIAGHETTSGLLSFALYFLVKNPHVLQKAAEEAARVLVDPVPSYKQVKQLKYVGMVLNEALRLWPTAPAFSLYAKEDTVLGGEYPLEKGDELMVLIPQLHRDKTIWGDDVEEFRPERFENPSAIPQHAFKPFGNGQRACIGQQFALHEATLVLGMMLKHFDFEDHTNYELDIKETLTLKPEGFVVKAKSKKIPLGGIPSPST | yes | 448
3 | Chimera 43-135: CYP102A1 heme domain with residues 43-135 from CYP102A2 (protein, Chimeric Cytochrome P450 heme group sequence from Bacillus megaterium and Bacillus subtilis, CYP102A1 heme domain with residues 43-135 from CYP102A2) TIKEMPQPKTFGELKNLPLLNTDKPVQALMKIADELGEIFKFHTPAGTTIVVSGHELVKEVCDEERFDKSIEGALEKVRAFSGDGLATSWTHEPNWRKAHNILMPTFSQRAMKDYHEKMVDIAVQLIQKWARLNPDEHIEVPEDMTRLTLDTIGLCGFNYRFNSFYRDQPHPFITSMVRALDEAMNKLQRANPDDPAYDENKRQFQEDIKVMNDLVDKIIADRKASGEQSDDLLTHMLNGKDPETGEPLDDENIRYQIITFLIAGHETTSGLLSFALYFLVKNPHVLQKAAEEAARVLVDPVPSYKQVKQLKYVGMVLNEALRLWPTAPAFSLYAKEDTVLGGEYPLEKGDELMVLIPQLHRDKTIWGDDVEEFRPERFENPSAIPQHAFKPFGNGQRACIGQQFALHEATLVLGMMLKHFDFEDHTNYELDIKETLTLKPEGFVVKAKSKKIPLGGIPSPST | yes | 448
4 | Chimera 50-140: CYP102A1 heme domain with residues 50-140 from CYP102A2 (protein, Chimeric Cytochrome P450 heme group sequence from Bacillus megaterium and Bacillus subtilis, CYP102A1 heme domain with residues 50-140 from CYP102A2) TIKEMPQPKTFGELKNLPLLNTDKPVQALMKIADELGEIFKFEAPGRVTIVVSGHELVKEVCDEERFDKSIEGALEKVRAFSGDGLATSWTHEPNWRKAHNILMPTFSQRAMKDYHEKMVDIAVQLIQKWARLNPNEAVDVPEDMTRLTLDTIGLCGFNYRFNSFYRDQPHPFITSMVRALDEAMNKLQRANPDDPAYDENKRQFQEDIKVMNDLVDKIIADRKASGEQSDDLLTHMLNGKDPETGEPLDDENIRYQIITFLIAGHETTSGLLSFALYFLVKNPHVLQKAAEEAARVLVDPVPSYKQVKQLKYVGMVLNEALRLWPTAPAFSLYAKEDTVLGGEYPLEKGDELMVLIPQLHRDKTIWGDDVEEFRPERFENPSAIPQHAFKPFGNGQRACIGQQFALHEATLVLGMMLKHFDFEDHTNYELDIKETLTLKPEGFVVKAKSKKIPLGGIPSPST | yes | 448
5 | CYP102A1: parent P450 heme domain from Bacillus megaterium, with the F87A mutation (protein, listed as Bacillus megaterium) TIKEMPQPKTFGELKNLPLLNTDKPVQALMKIADELGEIFKFEAPGRVTRYLSSQRLIKEACDESRFDKNLSQALKFVRDFAGDGLATSWTHEKNWKKAHNILLPSFSQQAMKGYHAMMVDIAVQLVQKWERLNADEHIEVPEDMTRLTLDTIGLCGFNYRFNSFYRDQPHPFITSMVRALDEAMNKLQRANPDDPAYDENKRQFQEDIKVMNDLVDKIIADRKASGEQSDDLLTHMLNGKDPETGEPLDDENIRYQIITFLIAGHETTSGLLSFALYFLVKNPHVLQKAAEEAARVLVDPVPSYKQVKQLKYVGMVLNEALRLWPTAPAFSLYAKEDTVLGGEYPLEKGDELMVLIPQLHRDKTIWGDDVEEFRPERFENPSAIPQHAFKPFGNGQRACIGQQFALHEATLVLGMMLKHFDFEDHTNYELDIKETLTLKPEGFVVKAKSKKIPLGGIPSPST | yes | 448
6 | CYP102A2: parent P450 heme domain from Bacillus subtilis, with the F88A mutation (protein, listed as Bacillus subtilis) KETSPIPQPKTFGPLGNLPLIDKDKPTLSLIKLAEEQGPIFQIHTPAGTTIVVSGHELVKEVCDEERFDKSIEGALEKVRAFSGDGLATSWTHEPNWRKAHNILMPTFSQRAMKDYHEKMVDIAVQLIQKWARLNPNEAVDVPGDMTRLTLDTIGLCGFNYRFNSYYRETPHPFINSMVRALDEAMHQMQRLDVQDKLMVRTKRQFRYDIQTMFSLVDSIIAERRANGDQDEKDLLARMLNVEDPETGEKLDDENIRFQIITFLIAGHETTSGLLSFATYFLLKHPDKLKKAYEEVDRVLTDAAPTYKQVLELTYIRMILNESLRLWPTAPAFSLYPKEDTVIGGKFPITTNDRISVLIPQLHRDRDAWGKDAEEFRPERFEHQDQVPHHAYKPFGNGQRACIGMQFALHEATLVLGMILKYFTLIDHENYELDIKQTLTLKPGDFHISVQSRHQEAIHADVQAAE | yes | 449
7 | Chimera 364-403: CYP102A1 heme domain with residues 364-403 from CYP102A2 (protein, Chimeric Cytochrome P450 heme group sequence from Bacillus megaterium and Bacillus subtilis, CYP102A1 heme domain with residues 364-403 from CYP102A2) TIKEMPQPKTFGELKNLPLLNTDKPVQALMKIADELGEIFKFEAPGRVTRYLSSQRLIKEACDESRFDKNLSQALKFVRDFAGDGLATSWTHEKNWKKAHNILLPSFSQQAMKGYHAMMVDIAVQLVQKWERLNADEHIEVPEDMTRLTLDTIGLCGFNYRFNSFYRDQPHPFITSMVRALDEAMNKLQRANPDDPAYDENKRQFQEDIKVMNDLVDKIIADRKASGEQSDDLLTHMLNGKDPETGEPLDDENIRYQIITFLIAGHETTSGLLSFALYFLVKNPHVLQKAAEEAARVLVDPVPSYKQVKQLKYVGMVLNEALRLWPTAPAFSLYAKEDTVLGGEYPLEKGDELMVLIPQLHRDRDAWGKDAEEFRPERFEHQDQVPHHAYKPFGNGQRACIGMQFALHEATLVLGMMLKHFDFEDHTNYELDIKETLTLKPEGFVVKAKSKKIPLGGIPSPST | yes | 449
